Results taken from paper PMC4051119, “Bacterial actin MreB forms antiparallel double filaments” (eLife, 2014).
No constants are given. Whether binding was seen depends on the method and setting. In cells and extracts the contact can be indirect. Some results given as binding are weak or reduced against the parent protein; the word gives no strength. Blank lines part the entries; values can stand above or below the substance they belong to.

Amino acid sequences for entries named in this document (tags omitted). A change or cut given only in a name is not applied to a line headed by its entry.
UniProt P0A9X4: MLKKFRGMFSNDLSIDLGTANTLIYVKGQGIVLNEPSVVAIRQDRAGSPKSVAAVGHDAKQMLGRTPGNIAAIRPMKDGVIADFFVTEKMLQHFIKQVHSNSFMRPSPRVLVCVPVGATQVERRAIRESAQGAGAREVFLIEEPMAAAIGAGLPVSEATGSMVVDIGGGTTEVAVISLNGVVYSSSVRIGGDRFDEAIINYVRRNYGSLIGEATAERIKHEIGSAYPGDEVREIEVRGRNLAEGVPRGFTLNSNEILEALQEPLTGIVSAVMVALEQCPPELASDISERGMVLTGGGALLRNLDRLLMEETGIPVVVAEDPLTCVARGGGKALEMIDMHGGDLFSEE

Experiments:
Experiment in all cases: cross-linking; in vivo in E. coli FB17/pFB112/pFB124, cells at late log phase in PBSG with 5 mM EDTA, 100 µM bismaleimidoethane (BMOE) 10 min on ice, quenched with β-mercaptoethanol; Western blot with α-MreB antibodies
[1] = molecular target: EcMreB-A125C/C113S/C278S/C324S (E. coli) (UniProt P0A9X4)
[2] = molecular target: EcMreB-D78C/C113S/C278S/C324S (E. coli) (UniProt P0A9X4)
[3] = molecular target: EcMreB-E262C/C113S/C278S/C324S (E. coli) (UniProt P0A9X4)
[4] = molecular target: EcMreB-F84C/C113S/C278S/C324S (E. coli) (UniProt P0A9X4)
[5] = molecular target: EcMreB-F84C/Q120C/C113S/C278S/C324S (E. coli) (UniProt P0A9X4)
[6] = molecular target: EcMreB-F84C/R124C/C113S/C278S/C324S (E. coli) (UniProt P0A9X4)
[7] = molecular target: EcMreB-K77C/C113S/C278S/C324S (E. coli) (UniProt P0A9X4)
[8] = molecular target: EcMreB-Q120C/C113S/C278S/C324S (E. coli) (UniProt P0A9X4)
[9] = molecular target: EcMreB-R124C/C113S/C278S/C324S (E. coli) (UniProt P0A9X4)
[10] = molecular target: EcMreB-R188C/C113S/C278S/C324S (E. coli) (UniProt P0A9X4)
[11] = molecular target: EcMreB-T119C/C113S/C278S/C324S (E. coli) (UniProt P0A9X4)

Substance: EcMreB-D78C/C113S/C278S/C324S (from UniProt P0A9X4 1-347)
binding [2]: binds

Substance: EcMreB-F84C/C113S/C278S/C324S (from UniProt P0A9X4 1-347)
binding [4]: binds

Substance: EcMreB-F84C/Q120C/C113S/C278S/C324S (from UniProt P0A9X4 1-347)
binding [5]: binds

Substance: EcMreB-F84C/R124C/C113S/C278S/C324S (from UniProt P0A9X4 1-347)
binding [6]: binds

Substance: EcMreB-R124C/C113S/C278S/C324S (from UniProt P0A9X4 1-347)
binding [9]: binds

Substance: EcMreB-R188C/C113S/C278S/C324S (from UniProt P0A9X4 1-347)
binding [10]: binds

Substance: EcMreB-T119C/C113S/C278S/C324S (from UniProt P0A9X4 1-347)
binding [11]: binds

Further lines, results first:

binding [1]: binds
Substance: EcMreB-A125C/C113S/C278S/C324S (from UniProt P0A9X4 1-347)

binding [3]: binds
Substance: EcMreB-E262C/C113S/C278S/C324S (from UniProt P0A9X4 1-347)

binding [7]: binds
Substance: EcMreB-K77C/C113S/C278S/C324S (from UniProt P0A9X4 1-347)

binding [8]: binds
Substance: EcMreB-Q120C/C113S/C278S/C324S (from UniProt P0A9X4 1-347)
